In series [1] the test system is T1, PhaR-His6 (Bradyrhizobium diazoefficiens USDA110).
T1 sequence (looked up): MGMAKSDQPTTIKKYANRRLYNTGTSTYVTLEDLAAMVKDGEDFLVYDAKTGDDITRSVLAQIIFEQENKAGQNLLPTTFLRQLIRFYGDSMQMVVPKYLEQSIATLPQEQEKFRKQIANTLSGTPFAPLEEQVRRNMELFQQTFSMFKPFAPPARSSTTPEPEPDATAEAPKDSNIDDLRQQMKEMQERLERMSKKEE
Put plainly: EMSA. Conditions: 285 mM Tris-HCl pH 8.0, 0.14 mg/mL BSA, 1.43 mM DTT, 5% glycerol, 0.04 mg/mL poly(dI-dC), 3.06 mM EDTA, 10 uL, 30 min at 25 C, 6% PAGE in TAE pH 8.2, PhaR-His6 0-110 nM, recombinant protein, residues 1-199, protein details: C-terminal His6, label: none (SYBR Green stain), probe letters rebuilt from the primers and the genome.

For series [2] the test system is unchanged. Put plainly: DNase I footprinting. Conditions: one protected site overlapping -35; 285 mM Tris-HCl pH 8.0, 0.14 mg/mL BSA, 1.43 mM DTT, 5% glycerol, 0.04 mg/mL poly(dI-dC), 3.06 mM EDTA, 10 uL, 30 min at 25 C; 6% PAGE in TAE pH 8.2; PhaR-His6 0-110 nM; recombinant protein; residues 1-199; protein details: C-terminal His6; label: 5'-FAM on upper or lower strand; probe letters rebuilt from the primers and the genome.

The mark [3] stands for this setting: shift at 27.8 nM, complete at 110 nM.
Where [4] appears, read: shift at 27.8 nM, complete at 55 nM.

For some assays here: The comparison behind a weaker result is the experiment's own reference, which may not be listed here. Tags and fusion partners may be left off the protein sequences shown.

Turning to “GGATTGAGGGGATTCTGAAACAGGAACTTGGTCGCGTCGGTGACCGCACGTGCCGGATTGAGAGAGGCGTGGGCCATCTCGTACATCCAGTACATCGGCGTCGTCAGGACCGGACTGCCTTCTGCAGCCAGGGGCGGCGCGCCGCCAAACTCACCAATAGGCATCGCTATATCCCTCTTCGCATCGCAGCATACTGCCGAATGCGTAATATTGCGTCAATGCACCGTCCCCGTACATCTACGTGGCGGAGACGGTTAAATCAGCCTGAATCCACGGGAAAGTGAAACTATTCGCCGCTGGACAGCAGCGAGCCGTT (double strand) [phaZ1 promoter]”, the binding result in series [1] (setting [3]) is reported as “binds”.

“GGCATTGCGGTTAATGCGTGCGGTTTCTCCGTGAATTTCTGGTAATTGACAGCACACACACTTTTCATTTTGCAGTGCAGCAACTATCTGGTTTGGGTGGACGTTGAACGTCGCCTGCCAGGAGTTGCCGTGTCGCTTGCCAGAAATATCGATCTCTTGAGACGCCTGCCGAAGGTGGATGGTCTGCGCTTTGCCGACTTCGGCCGCAGCGCGGATGCGCCCGGTCCATTGCAAGAGGTTGCGGACTTCGGTGACAATCCCGGCAATCTTCGCATGTTCGCGTTCGCGCCGGCGCAGTTGCAGATGCCGCGC (double strand) [phaZ3 promoter]”: in series [1] (setting [4]), the binding result is “binds”.

On to “TCCGGGGGATGTCATTCCGGGGCGCGCCACTTGGCGCGAGCCCGGAATCCAATTCCCTGCGATCTCCGGTAGCCCGATGGATTCTCAGATGCGCAATTGCGCATCATGGCTCCCTCGCTTCGGTCGGGCCCCGGAATGACGAAGTACACCTCAACCACGGGTTCCCGTACCCCGGAACCTCATCCTCTCCGGGATTAAATTTTCCCCGCGCACCCCGGATCGCGTTGCGCTGCACAATGTTGACATGTTACGCAGGGATACTGCTGGGCGTTGGACGAGCCATCTTTTTCGTTACGCGTATCCAGTCTTCGTAC (double strand) [phaP4 promoter]”, for which the binding result in series [1] (shift at 13.8 nM, complex at 110 nM) is “binds”.

“CTCACCAAGAGCTCCGATTCGAGCCGGATCGAAACGACATAAGTCCACAAGCGAGGCCCGGTTCAAGTCTGGAATTGCAAGTATCGCGCCGCACAACTCGCGGAACCCGCCGGCCCGCGCGCGGCGGCCCCGCGCTGGCATTGCCTCATGCCGTGGAATTTTTTCAGCGCCTGCGCACAAGTGAGAGTCGGTCGTCAGGTTGCTGTAAGGTAACTGACATCTGCGTCCAACATATCGGCATGACGCTTACGACTTTCGTATTGACGCGTTTTGCATTCGGGCGGAGTGTTGCTGTCGCAGCGTCAAAAGGCGCGCATATTTGGAGGAACGGATG (double strand) [exaA promoter]”: the binding result in series [1] (some shift at 110 nM) is “binds more weakly”.

Consider “ACGGCAAGACCCACGACATTGTCGTGCTCGGCCACAACATCGCGCAGGTCCAGGCCCAGATGGAGGCCTATGGGCTGCCAGGTGCCGTCCAGCTCTAAAGACCGCGATCAGGCACGCCTTCGCCGGGATTGGTGAGGGAGGCATCATATTGCCTCCTGTTAAGGCTGTTCACGATTTCGTGATACTGCAGTGCAATATGAATGTTGCATCGCACAATTAACTATGCCATATAAGCCGTGCCCCGGGCCAATGCGGACGGGGTGAGCCCATAGCTCAGACCATTGAGGATGGAGAGAACCCC (double strand) [phaP5 promoter]”, for which the binding result in series [1] (shift at 27.8 nM, complex at 110 nM) was “binds”.

Consider “GGCGTGATCGGCAATATCATCTGGTTCGTGCTGGCCGGCTGGTGGCTGGCGCTCGGCCACCTCGTGACCGCTCTGGTCCTGGCGATCACCATCATCGGCATCCCCTTCGCCTGGGCCCATCTGAAGCTCGCCGGCATCGCGCTCTGGCCGATCGGCAAGGTGATCGTGCCGGCCTAGCGGCAGTCCCGGTCCCAAGTAACACCCCAAGTGTGCGCCGCCCCCAACTTCACCTTGCGCTGCGGCAAAAAACTTGCACACTCGGCTGAACCGGGCAGTCAAGCGAGCTCGAACCAGGGGAGCGAG (double strand) [ppc promoter]”, for which the half-maximal binding in series [1] (about half of DNA shifted only at highest concentration) stood at 110 nM.

As to “GGGCCGAGCCTTTGAGAATGAGTTTCCTTTGCGGGGCCAACGGGTAGCTGCGGCGCAGCAATCCGGACATTGGACAATTTGTCCAATGTTGCAGTGCGGAATGTTGGGCCAGACAGGCCCGGATTGCCTGGCGCCCCGCCGGGCGGTCGGCTTTGGTTTTCAGGACGTTAAGGGCGCACGAATGGCGACGGCACAGACCCCTGCAATGGCAGACCTCCACTCGGGCGAGCACGGCCACGACCAGGCCAGTCCCGGCGAGATCGCCATCGGCGTCATCATCGGCCGCACCTCGGAATTCTTCGACT (double strand) [cyoA promoter]”, in series [1] (setting [4]), the binding result is reported as “binds”.

On to “TCCGGGGGATGTCATTCCGGGGCGCGCCACTTGGCGCGAGCCCGGAATCCAATTCCCTGCGATCTCCGGTAGCCCGATGGATTCTCAGATGCGCAATTGCGCATCATGGCTCCCTCGCTTCGGTCGGGCCCCGGAATGACGAAGTACACCTCAACCACGGGTTCCCGTACCCCGGAACCTCATCCTCTCCGGGATTAAATTTTCCCCGCGCACCCCGGATCGCGTTGCGCTGCACAATGTTGACATGTTACGCAGGGATACTGCTGGGCGTTGGACGAGCCATCTTTTTCGTTACGCGTATCCAGTCTTCGTAC (double strand) [FAM-phaP4 promoter (footprint)]”, for which the binding result in series [2] is reported as “binds”.

“CGAAGGCACCGTTGCGCACGCCCGTCTCTTGCACGAAAAAATCCTCCTAGAACCCGCGACACATAGCGCGACCAAGCTTTGGCGCCATCGCAGTCACCGTGAATAATAGGCCATCCGGCCTAGGTTGGGCGACCTAATACTGATGAACGCTGGCGTTGCCAAGCCGATCCCGCAGGATTTGGTTTATTCAAGGACCGCGCCAAACGTCGCGCATGTCTGCTCTGAGCAGGTGCATCAAAAAATCACGAATGATCGCGCAACCAAATGCGCGTTTCGACGTTATCGGGGGTTATTGCGACGCACAATTCCCTGGGC (double strand) [pckA promoter]”: the binding result in series [1] (some shift at 110 nM) is “binds more weakly”.

For “AATGCGAGCTGGCGTGTTGACCGTCATTCGCACGATTGCACGGAATGCGGCGGAGGTTCGCGCGCGCAGCCCTGATCTGTTCCAAACGCAATGCCCGTTGCCTCACGAAAGCTGAATTGAAGTTTATGAGCACGTTGCCGAAGCCGGAGCACAGATGTGTCCGGCTTCTTGCTGCCGCATCTTGTGTGCAGTGTCCGGCGCCGGAGATCGGCGGTTCGGCTCTTTTCAGTTGAATAAACCACCCGGTGGAGGCATTATATTGCACCGCAGCATTTCGCTTTGGTCGAATCGTAGAGCGTCTTTCAA (double strand) [blr2367 (exoZ operon) promoter]”, in series [1] (setting [3]), the binding result is reported as “binds”.

With “CTTGCCACGCTGTGCATCGGCGGCGGCATGGGTATCGCGATGTGTCTGGCGCGCGACTGAATCTAGCTGTCGCGCAGCTTATTTGGACCATGCGCGTGCGCTGCACACATAAGTGAGTGCGTTGCACGCGACTAAAAAGGCAGCGGTTGCAAATCAAATATTCTTCGCAACCGCCTCAGCCTCGACTAAAGAGAAACGCCCGGCTCACGCCGGGCGTTTTGTTCTTGATGTCCGTCAAACGTCCCGCATAATCCGTAGCTAAAAACGATCACTCAGAAACGTCCGAAGAGTCCAAGGGAAGGAATACGATATGGCACGTGTTGCATTGG (double strand) [phbB2 promoter]”, in series [1] (some shift at 110 nM), the binding result is “binds more weakly”.
